Reference: PubChem BioAssay AID485314 (National Center for Advancing Translational Sciences (NCATS), 2010)
Among all 340,000 compounds or so, about 4,500 (1.3%) were called active. Inconclusive means that the source gave no clear call. Such entries were picked first, then a sample of the others. The call rests on the fitted dose curve; in most records, active means well fitted inhibition curve with a large enough effect; inconclusive means small, poorly fitted or top-dose-only effect, or another doubt; inactive means no such curve, though single readings can be large or run the other way. Potencies of inconclusive entries are doubtful fits and often do not repeat.

target: DNA polymerase beta (Homo sapiens) (UniProt P06746); experiment: qHTS Assay for Inhibitors of DNA Polymerase Beta; details: Pol beta primer extension/strand displacement, fluorescence kinetic; activity change, negative = inhibition: at 114 µM (top of the series)
Summary of the method: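 Preincubation: enzyme (10 nM) with compound, 15 min, RT. Reaction: substrate added to 50 nM final. Reads: 0 and 10 min. Analysis: normalized, Hill fit.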
On the % scale 0 is the no-effect control and ±100 the full control effect; potency means the concentration at half of the fitted maximal effect.

| SMILES | Potency | activity change, negative = inhibition |
| --- | --- | --- |
| CCC(c1nnnn1Cc1ccc(F)cc1)N(CCCO)Cc1cc2cc3c(cc2[nH]c1=O)OCO3 (stereo not given) | inconclusive: 39.8 µM [inhibitor, single point] | – |
| COC(=O)/C=C1/SC(=NC(=O)c2cccc([N+](=O)[O-])c2)NC1=O | – | inactive: -18.7% |
| COc1cccc(C2C(C#N)=C(N)OC3=C2C(=O)CC(c2ccco2)C3)c1OCc1ccc(F)cc1 (stereo not given) | inconclusive: 89.1 µM [inhibitor, single point] | – |
| CCN1CCN(C(=O)C2CCC(=O)N(Cc3cccc(C(F)(F)F)c3)C2)CC1 (stereo not given) | inconclusive: 10 µM [inhibitor, partial curve] | – |
| CCCn1c(CCC(=O)O)ccc1-c1ccc(OC)cc1 | active: 25.1 µM | – |
| O=C(C1CCCN(S(=O)(=O)c2cccs2)C1)N1CCN(c2ccccc2F)CC1 (stereo not given) | inconclusive: 89.1 µM [inhibitor, single point] | – |
| O=C(Cc1cccs1)Nc1ccc(F)cc1 | inconclusive: 0.891 µM [inhibitor, full curve, poor fit] | – |
| COc1cc(/C=C/c2nc3ccccc3c(=O)[nH]2)cc(Br)c1O | – | inconclusive: -117% [inhibitor] |
| Brc1cnc2nc(SCc3nc4ccccc4[nH]3)[nH]c2c1 | – | inconclusive: -57.7% [inhibitor] |
| COc1c(C)cccc1C(=O)Nc1ccc(OCC(=O)N2CCOCC2)cc1C | – | inconclusive: -54.6% [inhibitor] |
| O=C(Nc1ccc(C(F)(F)F)cc1)c1ccc2ncsc2c1 | inconclusive: 2.51 µM [inhibitor, full curve, poor fit] | – |
| NC(=S)N/N=C/c1ccc(-c2ccc(Cl)c(Cl)c2)o1 | – | inactive: -0.35% |
| CCOC(=O)c1c(SCC(=O)Nc2nc3ccc(C)cc3s2)nc(=O)[nH]c1C | inconclusive: 17.8 µM [inhibitor, full curve] | – |
| Oc1ccc(Nc2nc(N3CCCC3)c3ccccc3n2)cc1 | active: 44.7 µM | – |
| COc1ccc(/C=N/NC(=O)COc2cccc3cccnc23)cc1OC | inconclusive: 8.91 µM [inhibitor, full curve] | – |
| COc1cc(OC)c(NC(=O)CSc2nccn2C)cc1Cl | – | inactive: 37.6% |
| CCOC(=O)c1cc2sc(C)cc2n1CC(=O)Nc1ccc2c(c1)OCCO2 | inconclusive: 25.1 µM [inhibitor, full curve] | – |
| O=C(CSc1ccc(Cl)cc1)NC(=O)NCc1ccco1 | inconclusive: 25.1 µM [inhibitor, full curve] | – |
| O=C1CC(/C=C/c2ccccn2)=Nc2ccccc2N1 | – | inactive: 1.89% |
| CCOc1cc(/C=C2\N=C(SC)SC2=O)cc([N+](=O)[O-])c1OC(C)=O | active: 22.4 µM | – |

Fetched by structure from the list above, two records:

| SMILES | Potency | activity change, negative = inhibition |
| --- | --- | --- |
| NC(=S)N/N=C/c1ccc(-c2ccc(Cl)c(Cl)c2)o1 | – | inactive: -0.35% |
| CCN1CCN(C(=O)C2CCC(=O)N(Cc3cccc(C(F)(F)F)c3)C2)CC1 (stereo not given) | inconclusive: 10 µM [inhibitor, partial curve] | – |
